Reference: patent US7851487B2, “Use of tetrahydropyridines in the treatment of central nervous system disorders” (The Research Foundation of State University of New York, priority 2006, dated 2010)
At least one compound was matched to its structure with a doubt left.

Experiments:
ckr mouse [1] = assay: Hyperactivity and circling in ckr mice (model validation); assay type: in vivo; settings: rate of hyperactivity and circling after administration, concentrations relevant to human clinical use
Experimental: The mouse also presents lateral ventricular enlargement, which may mirror neuropathological observations in shizophrenia. […] We have further validated this model by testing risperidone, clozapine, haloperidol and pimozide in the ckr mouse. The behavioral output was assayed by measuring the rate of hyperactivity and circling after administration.

ckr mouse [2] = settings: Torres et al. (2004); cited from earlier work

Structure (SMILES) | hyperactivity in ckr mice (ckr mouse [1]) | characteristic circling behavior of the mice (ckr mouse [2])
O=c1[nH]c2ccccc2n1C1CCN(CCCC(c2ccc(F)cc2)c2ccc(F)cc2)CC1 [pimozide] | dose-dependent attenuation of hyperactivity | –
Cc1cc2c(s1)Nc1ccccc1N=C2N1CCN(C)CC1 [olanzapine] | – | reduce the characteristic circling behavior
CN1CCN(C2=Nc3cc(Cl)ccc3Nc3ccccc32)CC1 [clozapine] | dose-dependent attenuation of hyperactivity | reduce the characteristic circling behavior
